# In article PMC10978942:
# Amino acid sequences for entries named in this document (tags omitted).
# UniProt G0RLE8, entry or part of it: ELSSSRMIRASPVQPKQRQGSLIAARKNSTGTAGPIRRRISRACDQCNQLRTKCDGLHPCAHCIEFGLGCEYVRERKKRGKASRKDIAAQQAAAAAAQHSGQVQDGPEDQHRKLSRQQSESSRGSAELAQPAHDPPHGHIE
# For at least one entry, the source does not settle the construct or the ends of the probe. For some assays here: The comparison behind a weaker result is the experiment's own reference, which may not be listed here.
# Key:
# [1] = biological target: ACE1 R383Q-DB (UniProt G0RCC6); assay: EMSA; conditions: 1.5 uM protein does not completely bind 60 ng probe; EMSA: 30 or 60 ng Cy5 probe, reaction buffer (composition not given), 20 min, 25 C, native PAGE; recombinant protein; residues 317-528; protein details: GST; label: Cy5; probe letters rebuilt from the primers and the genome
# [2] = biological target: XYR1-DB (UniProt G0RLE8); assay: EMSA; conditions: 0.5 uM XYR1-DB, specific XYR1-DNA complex, more distinct in competition with ACE1 R383Q-DB than with ACE1-DB; EMSA: 30 or 60 ng Cy5 probe, reaction buffer (composition not given), 20 min, 25 C, native PAGE; recombinant protein; residues 55-195; label: Cy5; probe letters rebuilt from the primers and the genome
sequence,measurement,setting,value
ACTAACTCGCGTACTGATGAGTAGATGGGGAGAGCATGAGGGAGGCACGGACCTCGAACCTTTATATATACACATTCGCTGACTTTGCCTACTAGCTCATTCCGTTTAATGAGGCTATCTTTATCGGCTATTGTTCTTGGCTAAGCTTCTCTTTCTATTCGAAACCATGCAGTGGCCCCTGAACATTTGCCTATCACATACCCTCAGCTGCTTGGTAAAGGCAGCAGTGTGTTCGATCCTACCACACTTTGCATTTGCCCGGAGCACAAACATGTACACCCAAAGGCCGAAGGCCCGAGGGCCCGAGATCTTAGGCAGTTTCAACTCAATCTTTTGCCTGTTCAGTGCCGACTTACATCAGTACGCGAGTTAGT (double strand) [cbh1-P3],binding result,[1],binds more weakly
same,binding result,[2],binds
